Test results as given in US10736906B2, “Method to enhance tissue regeneration” (CHILDREN'S MEDICAL CENTER CORPORATION, priority 2006, dated 2020).
At least one compound was matched to its structure with a doubt left.

What was measured:
liver growth = test: liver growth, early experimental evidence; assay type: in vivo
[1] = system: hematopoietic stem cells (HSCs); test: HSC formation in zebrafish embryos (runx1, c-myb expression), with heat-shock inducible wnt modulators; assay type: in vivo
Description: The functional consequences of the PGE2/wnt interaction in HSC formation during embryonic development were analyzed by examining the expression of the HSC markers runx1 and c-myb. Heat shock induction of a canonical wnt ligand, wnt8, at ten somites led to enhanced HSC formation at 36 hours post fertilization (hpf; 47/54). When wnt8 induction was followed by exposure to indomethacin (10 μM, 16-36 hpf) HSC formation was reduced to or below wild-type levels ( 43/46).
Inducible negative regulators of wnt activity were used in combination with dmPGE2 treatment to functionally localize the interaction between the PG and wnt pathways. Dkk1 antagonizes the wnt pathway at the level of membrane binding and the initiation of the wnt signaling cascade. […]
The wnt pathway can actively enhance HSC proliferation through signaling from the HSC niche as well as within HSCs themselves. […] In order to identify transcriptional programs regulated by the wnt signaling pathway, genes involved in HSC development were analyzed by qPCR. […]
Heat shock activation/repression of wnt signaling: Embryonic heat-shock experiments were conducted at 38° C. for a duration of 20 minutes unless otherwise noted. Genotype was determined by the presence of GFP fluorescence at three hours post heat-induction, non-fluorescence (wild-type) siblings were used as controls. […]

SMILES	effect on liver growth (liver growth)	rescue of the inhibitory effects of indomethacin ([1]; wild-type and wnt8 transgenic fish)	effect on HSCs and endodermal progenitors ([1]; zebrafish, increasing cAMP production)
CC1(C)O[C@@H]2C[C@H]3[C@@H]4C[C@H](F)C5=CC(=O)CC[C@]5(C)[C@H]4[C@@H](O)C[C@]3(C)[C@]2(C(=O)CO)O1 [Flurandrenolide]	enhanced		
C=C[C@@]1(C)CC(=O)[C@]2(O)[C@@]3(C)[C@@H](O)CCC(C)(C)[C@@H]3[C@H](O)[C@H](OC(C)=O)[C@@]2(C)O1 [forskolin]		able to rescue	similarly enhancing effects as dmPGE2
